# Inconclusive means that the source gave no clear call. Such entries were picked first, then a sample of the others. For part of these data: Potencies beside an inconclusive call are fits to weak or partial responses and may not hold up. The source made the active and inactive calls. The calls were made as follows: active = hit-call score of the fitted dose curve at least 0.9, where 1 is the maximum; inconclusive = response in the unintended direction; inactive = score below 0.9.
# The chains behind the UniProt entries cited, without tags or fusion partners. Where a name states a change or a piece, a line headed by the entry shows the natural chain unless it says otherwise.
# UniProt P62508: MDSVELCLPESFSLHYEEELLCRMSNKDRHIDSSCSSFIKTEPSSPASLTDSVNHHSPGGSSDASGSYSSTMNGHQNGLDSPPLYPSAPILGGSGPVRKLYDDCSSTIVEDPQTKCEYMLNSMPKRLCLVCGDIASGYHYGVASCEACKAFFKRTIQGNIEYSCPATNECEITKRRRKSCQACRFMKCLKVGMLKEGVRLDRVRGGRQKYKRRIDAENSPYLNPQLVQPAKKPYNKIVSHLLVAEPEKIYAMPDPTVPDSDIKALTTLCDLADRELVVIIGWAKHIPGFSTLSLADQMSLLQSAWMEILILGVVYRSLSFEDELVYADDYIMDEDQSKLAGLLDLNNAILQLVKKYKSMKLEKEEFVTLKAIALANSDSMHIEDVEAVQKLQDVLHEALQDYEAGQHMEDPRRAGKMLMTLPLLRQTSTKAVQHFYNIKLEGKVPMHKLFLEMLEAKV
# UniProt Q07869: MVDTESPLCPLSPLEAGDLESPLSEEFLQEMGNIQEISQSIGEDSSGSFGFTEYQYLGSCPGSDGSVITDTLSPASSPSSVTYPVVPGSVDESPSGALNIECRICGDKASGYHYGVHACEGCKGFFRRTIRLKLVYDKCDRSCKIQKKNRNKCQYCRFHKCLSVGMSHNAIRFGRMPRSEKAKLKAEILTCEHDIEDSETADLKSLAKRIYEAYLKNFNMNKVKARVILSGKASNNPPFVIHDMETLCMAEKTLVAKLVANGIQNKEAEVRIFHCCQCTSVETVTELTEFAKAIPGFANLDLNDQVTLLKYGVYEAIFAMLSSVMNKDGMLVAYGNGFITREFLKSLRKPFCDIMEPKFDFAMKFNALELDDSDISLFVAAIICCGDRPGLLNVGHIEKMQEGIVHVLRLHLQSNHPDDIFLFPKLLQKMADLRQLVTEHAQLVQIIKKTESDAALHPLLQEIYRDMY
# UniProt Q03181: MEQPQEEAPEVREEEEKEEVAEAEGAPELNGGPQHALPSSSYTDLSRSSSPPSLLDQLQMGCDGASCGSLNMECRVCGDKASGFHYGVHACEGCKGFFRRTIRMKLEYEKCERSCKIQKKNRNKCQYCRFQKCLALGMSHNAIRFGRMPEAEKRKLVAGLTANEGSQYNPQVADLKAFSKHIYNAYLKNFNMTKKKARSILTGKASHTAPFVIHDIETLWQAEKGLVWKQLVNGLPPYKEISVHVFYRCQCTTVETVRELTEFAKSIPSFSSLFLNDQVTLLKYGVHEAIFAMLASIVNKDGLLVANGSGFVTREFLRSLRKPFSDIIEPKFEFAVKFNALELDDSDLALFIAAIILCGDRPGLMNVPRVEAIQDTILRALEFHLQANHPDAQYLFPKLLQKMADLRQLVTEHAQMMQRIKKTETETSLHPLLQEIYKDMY
# UniProt P10826, whole entry, looked up: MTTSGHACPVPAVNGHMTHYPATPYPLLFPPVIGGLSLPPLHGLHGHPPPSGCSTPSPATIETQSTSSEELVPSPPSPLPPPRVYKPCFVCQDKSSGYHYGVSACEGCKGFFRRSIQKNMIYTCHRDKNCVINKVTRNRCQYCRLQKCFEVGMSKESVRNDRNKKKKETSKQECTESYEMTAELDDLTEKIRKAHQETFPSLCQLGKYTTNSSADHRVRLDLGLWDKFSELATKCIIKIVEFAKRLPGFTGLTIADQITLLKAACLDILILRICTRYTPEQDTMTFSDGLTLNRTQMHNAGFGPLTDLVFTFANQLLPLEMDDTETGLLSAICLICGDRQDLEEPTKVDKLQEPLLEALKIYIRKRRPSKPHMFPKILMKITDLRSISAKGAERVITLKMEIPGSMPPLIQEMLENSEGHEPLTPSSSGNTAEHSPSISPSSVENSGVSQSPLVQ
# UniProt P13631, whole entry, looked up: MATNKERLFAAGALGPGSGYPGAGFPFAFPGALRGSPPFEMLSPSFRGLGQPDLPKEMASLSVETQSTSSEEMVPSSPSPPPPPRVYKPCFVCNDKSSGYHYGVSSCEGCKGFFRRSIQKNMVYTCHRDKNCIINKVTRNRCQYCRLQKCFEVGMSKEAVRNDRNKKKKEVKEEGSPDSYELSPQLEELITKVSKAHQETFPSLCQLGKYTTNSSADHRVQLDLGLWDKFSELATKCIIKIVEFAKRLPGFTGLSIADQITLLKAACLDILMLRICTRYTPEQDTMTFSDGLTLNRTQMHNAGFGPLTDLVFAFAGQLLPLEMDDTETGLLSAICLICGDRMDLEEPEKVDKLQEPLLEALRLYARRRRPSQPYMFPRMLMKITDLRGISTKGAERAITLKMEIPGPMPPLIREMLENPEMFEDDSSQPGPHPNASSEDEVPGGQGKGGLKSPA
# UniProt P51449: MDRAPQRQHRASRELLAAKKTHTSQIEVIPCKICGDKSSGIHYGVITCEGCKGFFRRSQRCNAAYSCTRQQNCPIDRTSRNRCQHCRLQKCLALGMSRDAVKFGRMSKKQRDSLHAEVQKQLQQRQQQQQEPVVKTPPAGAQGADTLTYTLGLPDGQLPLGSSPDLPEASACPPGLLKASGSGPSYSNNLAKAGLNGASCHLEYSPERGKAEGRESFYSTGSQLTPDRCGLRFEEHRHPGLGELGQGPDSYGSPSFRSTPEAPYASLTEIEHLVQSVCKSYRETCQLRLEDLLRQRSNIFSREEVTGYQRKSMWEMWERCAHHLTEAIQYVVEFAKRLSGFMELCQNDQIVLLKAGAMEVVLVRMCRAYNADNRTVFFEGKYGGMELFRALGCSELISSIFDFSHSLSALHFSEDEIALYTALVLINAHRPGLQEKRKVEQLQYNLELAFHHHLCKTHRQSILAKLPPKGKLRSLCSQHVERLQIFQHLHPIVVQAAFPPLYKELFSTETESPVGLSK
# UniProt P19793: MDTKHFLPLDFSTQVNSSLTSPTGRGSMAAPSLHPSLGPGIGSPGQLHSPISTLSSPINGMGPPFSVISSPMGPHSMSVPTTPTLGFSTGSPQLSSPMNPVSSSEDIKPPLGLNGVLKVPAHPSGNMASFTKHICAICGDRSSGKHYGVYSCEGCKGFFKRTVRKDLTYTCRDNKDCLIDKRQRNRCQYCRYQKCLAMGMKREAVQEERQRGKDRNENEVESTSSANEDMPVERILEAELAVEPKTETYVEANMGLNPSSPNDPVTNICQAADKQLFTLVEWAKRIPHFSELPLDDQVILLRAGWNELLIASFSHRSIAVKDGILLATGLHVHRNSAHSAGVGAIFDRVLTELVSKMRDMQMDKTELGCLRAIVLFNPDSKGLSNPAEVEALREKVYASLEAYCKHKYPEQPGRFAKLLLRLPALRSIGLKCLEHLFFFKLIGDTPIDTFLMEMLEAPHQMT
# UniProt P28702: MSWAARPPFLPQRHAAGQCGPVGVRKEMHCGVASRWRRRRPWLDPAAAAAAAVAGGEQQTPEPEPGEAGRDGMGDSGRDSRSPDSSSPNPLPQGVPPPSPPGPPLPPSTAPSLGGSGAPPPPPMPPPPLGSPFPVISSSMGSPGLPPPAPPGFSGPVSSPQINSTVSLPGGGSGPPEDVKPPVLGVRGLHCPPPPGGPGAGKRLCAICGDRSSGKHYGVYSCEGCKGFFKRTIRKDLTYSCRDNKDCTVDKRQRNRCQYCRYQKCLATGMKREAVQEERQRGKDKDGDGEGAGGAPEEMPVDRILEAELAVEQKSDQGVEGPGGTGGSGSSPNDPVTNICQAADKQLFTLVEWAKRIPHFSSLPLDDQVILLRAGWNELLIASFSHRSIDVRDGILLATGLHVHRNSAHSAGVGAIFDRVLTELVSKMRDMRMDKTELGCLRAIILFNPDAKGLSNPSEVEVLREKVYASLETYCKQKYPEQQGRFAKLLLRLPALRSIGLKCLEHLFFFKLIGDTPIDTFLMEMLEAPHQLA
# UniProt P11473: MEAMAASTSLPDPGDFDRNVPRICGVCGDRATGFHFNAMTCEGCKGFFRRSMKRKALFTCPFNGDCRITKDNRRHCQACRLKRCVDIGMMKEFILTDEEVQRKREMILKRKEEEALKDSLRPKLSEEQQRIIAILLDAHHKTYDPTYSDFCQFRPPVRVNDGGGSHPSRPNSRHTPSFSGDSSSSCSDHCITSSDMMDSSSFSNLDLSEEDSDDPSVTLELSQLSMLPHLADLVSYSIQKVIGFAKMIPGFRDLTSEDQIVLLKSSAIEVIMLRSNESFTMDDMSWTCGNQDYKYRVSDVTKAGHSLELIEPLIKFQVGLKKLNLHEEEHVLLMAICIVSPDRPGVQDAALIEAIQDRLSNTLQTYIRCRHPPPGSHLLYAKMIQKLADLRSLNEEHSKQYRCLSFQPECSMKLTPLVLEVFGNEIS
# UniProt P29323: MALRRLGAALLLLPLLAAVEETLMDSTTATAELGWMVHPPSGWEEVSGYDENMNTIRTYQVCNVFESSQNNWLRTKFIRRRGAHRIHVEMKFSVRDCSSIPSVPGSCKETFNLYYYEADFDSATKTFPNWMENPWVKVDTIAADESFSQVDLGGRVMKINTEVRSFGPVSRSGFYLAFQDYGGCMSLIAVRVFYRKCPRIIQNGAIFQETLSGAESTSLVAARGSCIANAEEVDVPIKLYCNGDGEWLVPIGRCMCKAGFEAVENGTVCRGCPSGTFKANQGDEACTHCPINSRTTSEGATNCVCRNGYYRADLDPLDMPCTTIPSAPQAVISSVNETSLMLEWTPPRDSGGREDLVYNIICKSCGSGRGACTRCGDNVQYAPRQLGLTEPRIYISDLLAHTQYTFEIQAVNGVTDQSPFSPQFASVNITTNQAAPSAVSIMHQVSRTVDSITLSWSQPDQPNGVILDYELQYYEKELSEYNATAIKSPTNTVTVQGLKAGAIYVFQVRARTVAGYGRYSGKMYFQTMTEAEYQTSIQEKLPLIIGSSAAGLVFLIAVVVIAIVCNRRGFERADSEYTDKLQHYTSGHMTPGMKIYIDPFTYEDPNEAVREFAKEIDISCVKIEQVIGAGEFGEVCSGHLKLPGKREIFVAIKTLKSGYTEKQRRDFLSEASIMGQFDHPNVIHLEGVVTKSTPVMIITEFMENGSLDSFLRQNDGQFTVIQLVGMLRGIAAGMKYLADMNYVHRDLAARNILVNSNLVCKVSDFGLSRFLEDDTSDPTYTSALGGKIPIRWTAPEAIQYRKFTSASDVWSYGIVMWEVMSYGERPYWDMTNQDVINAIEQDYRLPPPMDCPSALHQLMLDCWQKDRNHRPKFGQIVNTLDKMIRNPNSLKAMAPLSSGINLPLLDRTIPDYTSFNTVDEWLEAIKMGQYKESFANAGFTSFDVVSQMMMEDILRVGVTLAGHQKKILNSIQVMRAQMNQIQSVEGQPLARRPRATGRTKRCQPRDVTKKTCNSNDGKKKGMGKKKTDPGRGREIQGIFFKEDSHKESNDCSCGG
# UniProt P14416, whole entry, looked up: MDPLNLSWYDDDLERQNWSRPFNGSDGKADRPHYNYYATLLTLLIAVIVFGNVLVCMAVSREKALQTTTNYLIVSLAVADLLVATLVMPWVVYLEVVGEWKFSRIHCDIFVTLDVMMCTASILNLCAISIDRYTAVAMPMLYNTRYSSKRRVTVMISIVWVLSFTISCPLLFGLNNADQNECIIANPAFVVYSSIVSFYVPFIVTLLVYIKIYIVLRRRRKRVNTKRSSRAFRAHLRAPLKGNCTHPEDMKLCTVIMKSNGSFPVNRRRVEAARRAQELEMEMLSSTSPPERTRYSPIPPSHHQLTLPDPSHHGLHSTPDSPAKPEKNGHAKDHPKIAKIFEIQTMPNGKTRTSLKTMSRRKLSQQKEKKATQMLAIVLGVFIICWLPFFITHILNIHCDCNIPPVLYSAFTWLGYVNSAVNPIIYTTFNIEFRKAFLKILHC
# UniProt Q01717: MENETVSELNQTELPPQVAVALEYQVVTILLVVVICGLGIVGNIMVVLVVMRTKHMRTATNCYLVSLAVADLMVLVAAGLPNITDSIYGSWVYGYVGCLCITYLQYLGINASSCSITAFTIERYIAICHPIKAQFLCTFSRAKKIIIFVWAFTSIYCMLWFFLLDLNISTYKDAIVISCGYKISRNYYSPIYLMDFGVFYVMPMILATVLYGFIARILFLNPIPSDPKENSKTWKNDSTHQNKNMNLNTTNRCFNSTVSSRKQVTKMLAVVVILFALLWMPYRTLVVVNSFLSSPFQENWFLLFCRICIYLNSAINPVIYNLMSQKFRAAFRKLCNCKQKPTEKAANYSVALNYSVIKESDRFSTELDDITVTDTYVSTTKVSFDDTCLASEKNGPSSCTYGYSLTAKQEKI
# Tests used:
# [1] = target: Estrogen-related receptor gamma (Homo sapiens) (UniProt P62508); experiment: ATG_ERRg_TRANS: Attagene TRANS-FACTORIAL HepG2 Assay for human Estrogen-Related Receptor gamma (ERRg) (AID 2282977); details: HepG2 Attagene TRANS reporter, ERRg transactivation;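 also: hits increase reporter signal over DMSO so potencies reflect activators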
# In short: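 HepG2 cells transiently transfected with multiplexed GAL4-UAS reporter units and chimeric NR-Gal4 constructs were exposed to test chemicals for 24 h. Reporter mRNA was measured by RT-PCR, 6-FAM primer extension, HpaI digestion and capillary electrophoresis; gain-of-signal versus DMSO.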
# [2] = target: human Peroxisome Proliferator-activated Receptor alpha (PPARa), PPARA (gene 5465) (UniProt Q07869); experiment: ATG_PPARa_TRANS: Attagene TRANS-FACTORIAL HepG2 Assay for human Peroxisome Proliferator-activated Receptor alpha (PPARa) (AID 2283001);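 also: potency for gain of reporter signal over DMSO so agonist or activator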
# In short: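 HepG2 cells transiently transfected with multiplexed GAL4-UAS reporter units and chimeric NR-Gal4 constructs were dosed for 24 h. Reporter mRNA was measured by RT-PCR with fluorescent labelling and capillary electrophoresis; gain of signal fitted against DMSO.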
# [3] = target: human Peroxisome Proliferator-activated Receptor delta (PPARd), PPARD (gene 5467) (UniProt Q03181); experiment: ATG_PPARd_TRANS: Attagene TRANS-FACTORIAL HepG2 Assay for human Peroxisome Proliferator-activated Receptor delta (PPARd) (AID 2283002)
# In short: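 HepG2 cells transiently transfected with multiplexed GAL4-UAS reporter units and exogenous chimeric NR-Gal4 proteins; 24 h compound exposure. Reporter mRNA measured by RT-PCR, 6-FAM labelling, HpaI digestion and capillary electrophoresis; gain of signal versus DMSO.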
# [4] = target: human Retinoic Acid Receptor beta (RARb), RARB (gene 5915) (UniProt P10826); experiment: ATG_RARb_TRANS: Attagene TRANS-FACTORIAL HepG2 Assay for human Retinoic Acid Receptor beta (AID 2283004)
# In short: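 Transient transfection of HepG2 with multiple reporter units → chemical dosing, 24 h → total RNA isolation → RT with oligo(dT) → reporter-specific PCR, 6-FAM primer extension, HpaI digest → capillary electrophoresis. Positive direction vs DMSO control.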
# [5] = target: Peroxisome proliferator-activated receptor gamma (Homo sapiens) (UniProt P37231); experiment: ATG_PPARg_TRANS: Attagene TRANS-FACTORIAL HepG2 Assay for human Peroxisome Proliferator-activated Receptor-gamma (PPARg) (AID 2283007)
# In short: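 Multiplexed reporter transcription units in HepG2, 24 h dosing, reporter transcripts quantified by fluorescent RT-PCR and capillary electrophoresis. Increase over DMSO scored.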
# [6] = target: human Retinoic Acid Receptor gamma (RARg), RARG (gene 5916) (UniProt P13631); experiment: ATG_RARg_TRANS: Attagene TRANS-FACTORIAL HepG2 Assay for human Retinoic Acid Receptor gamma (RARg) (AID 2283009);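 also: AC50 is for reporter induction above DMSO meaning RARg activation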
# In short: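 HepG2 cells transiently transfected with multiplexed reporter units expressing chimeric RARg-GAL4 and GAL4-UAS-driven reporters; 24 h compound exposure. Reporter mRNA quantified by RT-PCR with fluorescent labelling and capillary electrophoresis; gain-of-signal fitted relative to DMSO baseline.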
# [7] = target: human RAR-related Orphan Receptor gamma (RORg), RORC (gene 6097) (UniProt P51449); experiment: ATG_RORg_TRANS: Attagene TRANS-FACTORIAL HepG2 Assay for human RAR-related Orphan Receptor gamma (RORg) (AID 2283011);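 also: potency for induction of reporter transcripts above DMSO so activators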
# In short: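 First, HepG2 liver cells were transfected with GAL4-UAS-driven reporter constructs and the RORg-Gal4 fusion. Next, they were treated with chemical for 24 h. Finally, reporter mRNA was quantified by RT-PCR and capillary electrophoresis, with upward activity fitted against DMSO.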
# [8] = target: Retinoic acid receptor RXR-alpha (Homo sapiens) (UniProt P19793); experiment: ATG_RXRa_TRANS: Attagene TRANS-FACTORIAL HepG2 Assay for human Retinoid X Receptor alpha (RXRa) (AID 2283012)
# In short: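 HepG2 cells transiently transfected with multiplexed GAL4-UAS reporter units and chimeric NR-GAL4 fusions, dosed 24 h. Reporter mRNA measured by RT-PCR, FAM labelling, HpaI digestion and capillary electrophoresis; gain-of-signal fitted relative to DMSO baseline.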
# [9] = target: human Retinoid X Receptor beta (RXRb), RXRB (gene 6257) (UniProt P28702); experiment: ATG_RXRb_TRANS: Attagene TRANS-FACTORIAL HepG2 Assay for human Retinoid X Receptor beta (RXRb) (AID 2283013)
# In short: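 HepG2 cells transiently transfected with multiplexed reporter units driven by GAL4-UAS and exogenous chimeric NR-Gal4 proteins; treated 24 h. Reporter mRNA measured by RT-PCR, 6-FAM labelling and capillary electrophoresis; gain-of-signal fitted versus DMSO baseline.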
# [10] = target: human Thyroid Receptor alpha (THRa1), THRA (gene 7067) (UniProt P10827); experiment: ATG_THRa1_TRANS: Attagene TRANS-FACTORIAL HepG2 Assay for human Thyroid Receptor alpha (THRa1) (AID 2283014)
# In short: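 Reporter transcript induction, read by capillary electrophoresis of 6-FAM-labelled RT-PCR products, reflects activity of a transfected THRa1-Gal4 fusion in HepG2 liver cells. Cells were dosed for 24 h; activity was fitted in the positive direction against DMSO.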
# [11] = target: human Vitamin D Receptor (VDR), VDR (gene 7421) (UniProt P11473); experiment: ATG_VDR_TRANS: Attagene TRANS-FACTORIAL HepG2 Assay for human Vitamin D Receptor (VDR) (AID 2283022)
# In short: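 Steps: transfect HepG2 with GAL4-UAS-driven reporter constructs; dose compounds 24 h; isolate RNA, reverse-transcribe, PCR-amplify with 6-FAM-labelled primer extension and HpaI digestion; quantify fragments by capillary electrophoresis relative to DMSO.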
# [12] = target: human Ephrin type-B Receptor 2 (EphB2), EPHB2 (gene 2048) (UniProt P29323); experiment: NVS_ENZ_hEphB2: NovaScreen (NVS) Enzymatic Assay for human Ephrin type-B Receptor 2 (EphB2) (AID 2283156)
# In short: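 Recombinant kinase with fluorescent substrate, product separated by electrophoretic mobility shift, read 1 h after dosing. Duplicate 25 uM screen, then singleton concentration-response to 50 uM max; loss of signal versus DMSO.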
# [13] = target: human Dopamine Receptor D2 (DRD2), DRD2 (gene 1813) (UniProt P14416); experiment: NVS_GPCR_hDRD2s: NovaScreen (NVS) G Protein-Coupled Receptor Assay for human Dopamine Receptor D2 (DRD2) (AID 2283266)
# In short: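 Radioligand displacement used human DRD2 membranes extracted from CHO cells and was read by filter-based scintillation counting after 1.5 hours. Primary screening was in duplicate at 25 uM. Loss of signal versus DMSO was fitted, with concentration series in follow-up.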
# [14] = target: rat Thyrotropin Releasing Hormone Receptor (TRH), Trhr (gene 25570) (UniProt Q01717); experiment: NVS_GPCR_rTRH: NovaScreen (NVS) G Protein-Coupled Receptor Assay for rat Thyrotropin Releasing Hormone Receptor (TRH) (AID 2283329);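 also: hit means lower bound tracer signal versus DMSO baseline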
# In short: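 Rat forebrain membranes; radioligand displacement at TRH receptor by filter-based scintillation counting, read 4 h after dosing. Duplicate single-point screen at 25 uM, actives rerun in concentration series; loss of signal relative to DMSO.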
# [15] = target: bovine Estrogen Receptor (ER), ESR1 (gene 407238) (UniProt P49884); experiment: NVS_NR_bER: NovaScreen (NVS) Nuclear Receptor Binding Assay for bovine Estrogen Receptor (ER) (AID 2283345);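 also: actives lower the bound radioligand count which means they displace the ER ligand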
# In short: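 Cell-free radioligand binding with bovine uterine membrane extracts, read 18 hours after dosing by scintillation counting. Loss of signal versus DMSO baseline indicates displacement. Primary screen run in duplicate at 25 uM, actives followed in concentration series.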
smiles,measurement,setting,value
[O-][Cl+]O,AC50,[1],inconclusive: 312 nM
same,AC50,[2],inconclusive: 100 µM
same,AC50,[3],inconclusive: 100 µM
same,AC50,[4],inconclusive: 100 µM
same,AC50,[5],inconclusive: 100 µM
same,AC50,[6],inconclusive: 100 µM
same,AC50,[7],inconclusive: 25 µM
same,AC50,[8],inconclusive: 100 µM
same,outcome,[9],inactive
same,outcome,[10],inactive
same,AC50,[11],inconclusive: 100 µM
same,AC50,[12],inconclusive: 8.88 µM
same,outcome,[13],inactive
same,AC50,[14],inconclusive: 599 nM
same,AC50,[15],inconclusive: 25 µM

# Exported with tabs: entries from further up.
smiles	measurement	setting	value
[O-][Cl+]O	AC50	[14]	inconclusive: 599 nM
same	AC50	[15]	inconclusive: 25 µM
